Binding data for five molecules are collected here from article PMC5345129.

Residue numbers refer to the chain shown, from its start. Names may count otherwise. Results are given in words; binding and its absence hold for the method and conditions named. In cells and extracts the contact can be indirect. A result given as binding can be weak or reduced; the word gives no strength. Tags and fused reporters may be left off the sequences shown.

Common to all, as to assay: pull-down; GST fusion proteins bound to Glutathione Sepharose 4B; Gα variants from high-speed supernatants of transfected HEK293 cells, detergent diluted to 0.05% polyoxyethylene-10-lauryl ether; 50 mM HEPES pH 7.5, 1 mM EDTA, 3 mM dithiothreitol, 10 mM MgSO4; 2 h at 4°C; three washes; immunoblot (anti-Gα12, anti-myc or anti-EGFP); 5% of the extract kept as load; only the target purified
(Immunoblotting shows a protein as a band on a membrane.)

Assay [1] has as its target GST-fusion of the 257-amino acid C-terminus of AKAP-Lbc (human).
The target in assay [2] is GST-fused 257-amino acid C-terminal region of AKAP-Lbc, charge-reversal mutant E2576R (human).
In assay [3] the target is GST-fused 257-amino acid C-terminal region of AKAP-Lbc, charge-reversal mutant E2670R (human).
Assay [4] has as its target GST-fused 257-amino acid region of p114RhoGEF, charge-reversal mutant E695R (human).
Assay [5] concerns the target GST-fused 257-amino acid region of p114RhoGEF, charge-reversal mutant E759R (human).
The target of assay [6] is GST-fused 257-amino acid region of p114RhoGEF, charge-reversal mutant E789R (human).
Assay [7] concerns the target GST-fusion of the RH domain of LARG (leukemia-associated RhoGEF).

B1: EGFP-tagged, constitutively active Gα13 (Q226L) (protein, UniProt P27601 1-377)
chain: MADFLPSRSVLSVCFPGCVLTNGEAEQQRKSKEIDKCLSREKTYVKRLVKILLLGAGESGKSTFLKQMRIIHGQDFDQRAREEFRPTIYSNVIKGMRVLVDAREKLHIPWGDNKNQLHGDKLMAFDTRAPMAAQGPVETRVFLQYLPAIRALWEDSGIQNAYDRRREFQLGESVKYFLDNLDKLGVPDYIPSQQDILLARRPTKGIHEYDFEIKNVPFKMVDVGGLRSERKRWFECFDSVTSILFLVSSSEFDQVLMEDRQTNRLTESLNIFETIVNNRVFSNVSIILFLNKTDLLEEKVQVVSIKDYFLEFEGDPHCLRDVQKFLVECFRGKRRDQQQRPLYHHFTTAINTENIRLVFRDVKDTILHDNLKQLMLQ
Consider B1, for which, in assay [1], the binding result was “no binding”.

B2: myc-tagged, constitutively active Gα12 (GTPase-deficient Q229L mutant) (protein, UniProt P27600 1-379)
chain: MSGVVRTLSRCLLPAEAGARERRAGAARDAEREARRRSRDIDALLARERRAVRRLVKILLLGAGESGKSTFLKQMRIIHGREFDQKALLEFRDTIFDNILKGSRVLVDARDKLGIPWQHSENEKHGMFLMAFENKAGLPVEPATFQLYVPALSALWRDSGIREAFSRRSEFQLGESVKYFLDNLDRIGQLNYFPSKQDILLARKATKGIVEHDFVIKKIPFKMVDVGGLRSQRQKWFQCFDGITSILFMVSSSEYDQVLMEDRRTNRLVESMNIFETIVNNKLFFNVSIILFLNKMDLLVEKVKSVSIKKHFPDFKGDPHRLEDVQRYLVQCFDRKRRNRSKPLFHHFTTAIDTENIRFVFHAVKDTILQENLKDIMLQ
In the case of B2, the binding result in assay [2], in assay [3], in assay [4], in assay [5], in assay [6] and in assay [1] was “binds” each time. The binding entry in assay [7] is “binds”.

B3: myc-tagged, constitutively active Gα12 (Q229L) with C11A substitution (protein, UniProt P27600 1-379)
chain: B2 chain with C11A
As for B3, in assay [7], the binding result is listed as “binds”.

B4: myc-tagged, constitutively active Gα12 (Q229L) cassette mutant Δ244–249 (protein, UniProt P27600 1-379)
chain: B2 chain with T244N, S245A, I246A, L247I, F248R, M249S
Take B4: in assay [1], the binding entry was “binds”.

B5: EGFP-tagged, constitutively active Gα12 (Q229L) (protein, UniProt P27600 1-379)
chain: B2 chain
Consider B5, for which the binding entry in assay [1] and in assay [7] was “binds” each time.
